Assay results: the supplement of paper PMC10849652
Some of the results follow.

Sequences of proteins named here, by UniProt entry; tags and fusion partners are left off. A change or cut given only in a name is not applied to a line headed by its entry.
UniProt O15066: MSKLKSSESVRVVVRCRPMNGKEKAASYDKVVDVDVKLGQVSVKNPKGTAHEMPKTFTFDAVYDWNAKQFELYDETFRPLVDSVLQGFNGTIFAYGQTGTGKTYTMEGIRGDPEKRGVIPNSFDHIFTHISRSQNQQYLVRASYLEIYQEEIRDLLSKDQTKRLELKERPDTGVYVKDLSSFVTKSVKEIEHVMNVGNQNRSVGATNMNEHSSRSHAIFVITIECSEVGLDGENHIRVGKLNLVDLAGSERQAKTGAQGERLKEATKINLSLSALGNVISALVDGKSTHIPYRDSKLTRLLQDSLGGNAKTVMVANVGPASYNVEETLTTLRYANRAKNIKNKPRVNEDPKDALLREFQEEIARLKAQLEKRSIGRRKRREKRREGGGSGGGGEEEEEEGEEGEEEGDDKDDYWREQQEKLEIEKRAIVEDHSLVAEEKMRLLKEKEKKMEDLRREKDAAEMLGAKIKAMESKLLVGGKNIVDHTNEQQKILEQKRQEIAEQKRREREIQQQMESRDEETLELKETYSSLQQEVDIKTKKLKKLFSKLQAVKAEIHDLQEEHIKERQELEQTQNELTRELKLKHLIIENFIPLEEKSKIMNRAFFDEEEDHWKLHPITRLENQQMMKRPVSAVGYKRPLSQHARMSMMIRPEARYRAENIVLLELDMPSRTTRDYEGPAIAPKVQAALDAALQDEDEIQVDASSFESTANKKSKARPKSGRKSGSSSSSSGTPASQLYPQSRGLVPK
UniProt Q9Y2K7: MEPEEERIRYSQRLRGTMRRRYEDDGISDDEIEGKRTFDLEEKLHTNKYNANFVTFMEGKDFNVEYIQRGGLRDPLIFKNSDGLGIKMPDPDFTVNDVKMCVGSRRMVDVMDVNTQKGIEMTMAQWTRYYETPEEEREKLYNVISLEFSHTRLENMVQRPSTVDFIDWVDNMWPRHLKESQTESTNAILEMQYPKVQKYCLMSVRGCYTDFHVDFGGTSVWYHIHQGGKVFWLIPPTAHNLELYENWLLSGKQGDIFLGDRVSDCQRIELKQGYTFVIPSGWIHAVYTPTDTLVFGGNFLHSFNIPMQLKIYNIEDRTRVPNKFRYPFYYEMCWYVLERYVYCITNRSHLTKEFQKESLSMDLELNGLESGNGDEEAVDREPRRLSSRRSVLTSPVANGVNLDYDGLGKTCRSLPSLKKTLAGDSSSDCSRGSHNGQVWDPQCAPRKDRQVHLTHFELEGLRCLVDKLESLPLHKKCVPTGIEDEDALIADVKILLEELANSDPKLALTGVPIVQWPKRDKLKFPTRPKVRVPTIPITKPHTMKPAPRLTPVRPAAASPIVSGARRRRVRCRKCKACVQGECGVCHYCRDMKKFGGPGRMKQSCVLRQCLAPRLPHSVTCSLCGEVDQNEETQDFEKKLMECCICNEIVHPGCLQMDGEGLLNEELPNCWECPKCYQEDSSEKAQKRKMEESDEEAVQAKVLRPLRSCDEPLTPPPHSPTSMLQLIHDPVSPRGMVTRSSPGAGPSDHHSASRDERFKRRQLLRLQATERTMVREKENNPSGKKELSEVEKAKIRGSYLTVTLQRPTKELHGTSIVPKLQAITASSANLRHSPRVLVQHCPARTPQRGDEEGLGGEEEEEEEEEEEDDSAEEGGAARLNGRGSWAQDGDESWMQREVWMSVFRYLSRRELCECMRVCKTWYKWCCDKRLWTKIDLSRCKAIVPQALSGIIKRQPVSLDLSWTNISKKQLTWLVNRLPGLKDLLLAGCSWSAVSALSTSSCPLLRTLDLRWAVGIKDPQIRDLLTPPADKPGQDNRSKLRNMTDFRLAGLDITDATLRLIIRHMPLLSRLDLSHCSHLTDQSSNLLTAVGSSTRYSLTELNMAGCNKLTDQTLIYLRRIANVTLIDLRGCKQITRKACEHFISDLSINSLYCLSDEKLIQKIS
UniProt O43896: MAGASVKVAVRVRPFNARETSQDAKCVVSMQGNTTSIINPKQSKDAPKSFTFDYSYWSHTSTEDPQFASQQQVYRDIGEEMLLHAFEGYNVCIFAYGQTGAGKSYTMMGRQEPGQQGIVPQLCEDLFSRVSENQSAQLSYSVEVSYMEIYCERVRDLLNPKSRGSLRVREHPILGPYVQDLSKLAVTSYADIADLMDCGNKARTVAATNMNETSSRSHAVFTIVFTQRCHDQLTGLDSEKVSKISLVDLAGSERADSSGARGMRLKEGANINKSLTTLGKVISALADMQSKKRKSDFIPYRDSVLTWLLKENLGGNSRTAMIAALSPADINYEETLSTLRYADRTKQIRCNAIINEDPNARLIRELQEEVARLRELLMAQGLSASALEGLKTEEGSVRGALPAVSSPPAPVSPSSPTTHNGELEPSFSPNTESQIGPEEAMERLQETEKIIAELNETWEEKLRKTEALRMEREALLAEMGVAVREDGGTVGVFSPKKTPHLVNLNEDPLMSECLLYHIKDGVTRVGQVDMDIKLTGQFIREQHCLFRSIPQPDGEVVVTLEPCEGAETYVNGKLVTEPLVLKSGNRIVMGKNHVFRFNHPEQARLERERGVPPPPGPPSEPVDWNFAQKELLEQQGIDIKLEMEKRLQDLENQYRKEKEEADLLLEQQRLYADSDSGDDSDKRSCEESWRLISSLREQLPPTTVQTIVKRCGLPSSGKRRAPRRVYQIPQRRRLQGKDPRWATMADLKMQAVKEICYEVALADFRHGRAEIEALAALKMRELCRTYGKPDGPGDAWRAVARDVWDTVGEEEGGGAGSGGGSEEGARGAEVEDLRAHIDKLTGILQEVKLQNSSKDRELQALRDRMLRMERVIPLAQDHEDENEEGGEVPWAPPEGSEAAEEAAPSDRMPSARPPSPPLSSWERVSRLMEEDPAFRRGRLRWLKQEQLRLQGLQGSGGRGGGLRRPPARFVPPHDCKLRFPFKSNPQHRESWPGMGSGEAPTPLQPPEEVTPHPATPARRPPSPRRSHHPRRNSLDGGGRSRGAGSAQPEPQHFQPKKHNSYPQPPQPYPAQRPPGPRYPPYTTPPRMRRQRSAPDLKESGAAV
UniProt Q15058: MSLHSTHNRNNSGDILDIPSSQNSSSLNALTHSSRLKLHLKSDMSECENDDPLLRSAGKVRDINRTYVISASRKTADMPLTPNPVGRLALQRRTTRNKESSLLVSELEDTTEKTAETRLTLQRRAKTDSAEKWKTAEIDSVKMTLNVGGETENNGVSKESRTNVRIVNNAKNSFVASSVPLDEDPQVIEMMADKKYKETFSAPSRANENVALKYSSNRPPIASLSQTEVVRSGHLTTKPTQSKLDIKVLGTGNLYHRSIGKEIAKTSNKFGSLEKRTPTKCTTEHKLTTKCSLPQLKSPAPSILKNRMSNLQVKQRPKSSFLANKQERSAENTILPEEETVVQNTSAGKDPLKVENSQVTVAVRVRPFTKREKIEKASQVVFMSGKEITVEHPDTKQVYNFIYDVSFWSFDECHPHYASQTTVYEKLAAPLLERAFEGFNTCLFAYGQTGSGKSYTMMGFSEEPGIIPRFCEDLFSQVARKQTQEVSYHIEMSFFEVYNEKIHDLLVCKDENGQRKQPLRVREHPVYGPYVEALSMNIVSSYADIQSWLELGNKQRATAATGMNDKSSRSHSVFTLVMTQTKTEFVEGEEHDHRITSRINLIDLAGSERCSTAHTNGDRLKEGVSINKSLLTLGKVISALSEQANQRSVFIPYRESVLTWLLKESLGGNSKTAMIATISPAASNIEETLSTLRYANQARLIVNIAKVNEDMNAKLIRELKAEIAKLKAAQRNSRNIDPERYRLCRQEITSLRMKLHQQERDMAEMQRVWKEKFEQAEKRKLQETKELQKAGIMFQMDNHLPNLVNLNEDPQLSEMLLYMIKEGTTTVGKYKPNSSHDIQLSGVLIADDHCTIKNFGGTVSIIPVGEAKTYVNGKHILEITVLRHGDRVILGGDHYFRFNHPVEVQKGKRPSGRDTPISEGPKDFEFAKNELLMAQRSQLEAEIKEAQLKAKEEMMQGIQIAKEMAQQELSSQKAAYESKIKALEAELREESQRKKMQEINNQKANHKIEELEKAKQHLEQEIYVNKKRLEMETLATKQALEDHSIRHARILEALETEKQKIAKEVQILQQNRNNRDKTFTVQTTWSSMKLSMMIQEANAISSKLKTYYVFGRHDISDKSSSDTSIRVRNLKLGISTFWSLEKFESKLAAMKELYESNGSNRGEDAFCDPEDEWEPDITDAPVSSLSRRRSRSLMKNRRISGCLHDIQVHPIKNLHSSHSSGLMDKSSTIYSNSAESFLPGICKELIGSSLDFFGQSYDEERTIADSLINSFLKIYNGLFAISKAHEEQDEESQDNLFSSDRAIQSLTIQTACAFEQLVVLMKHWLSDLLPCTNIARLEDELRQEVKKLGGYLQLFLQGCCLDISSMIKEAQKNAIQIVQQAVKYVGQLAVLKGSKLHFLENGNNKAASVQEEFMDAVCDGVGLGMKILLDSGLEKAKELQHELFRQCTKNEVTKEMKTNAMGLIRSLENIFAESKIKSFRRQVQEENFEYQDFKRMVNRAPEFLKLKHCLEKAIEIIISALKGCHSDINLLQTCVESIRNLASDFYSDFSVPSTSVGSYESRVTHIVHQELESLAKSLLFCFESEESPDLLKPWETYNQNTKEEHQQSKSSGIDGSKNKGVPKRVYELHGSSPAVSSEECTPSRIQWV
UniProt Q8NB78: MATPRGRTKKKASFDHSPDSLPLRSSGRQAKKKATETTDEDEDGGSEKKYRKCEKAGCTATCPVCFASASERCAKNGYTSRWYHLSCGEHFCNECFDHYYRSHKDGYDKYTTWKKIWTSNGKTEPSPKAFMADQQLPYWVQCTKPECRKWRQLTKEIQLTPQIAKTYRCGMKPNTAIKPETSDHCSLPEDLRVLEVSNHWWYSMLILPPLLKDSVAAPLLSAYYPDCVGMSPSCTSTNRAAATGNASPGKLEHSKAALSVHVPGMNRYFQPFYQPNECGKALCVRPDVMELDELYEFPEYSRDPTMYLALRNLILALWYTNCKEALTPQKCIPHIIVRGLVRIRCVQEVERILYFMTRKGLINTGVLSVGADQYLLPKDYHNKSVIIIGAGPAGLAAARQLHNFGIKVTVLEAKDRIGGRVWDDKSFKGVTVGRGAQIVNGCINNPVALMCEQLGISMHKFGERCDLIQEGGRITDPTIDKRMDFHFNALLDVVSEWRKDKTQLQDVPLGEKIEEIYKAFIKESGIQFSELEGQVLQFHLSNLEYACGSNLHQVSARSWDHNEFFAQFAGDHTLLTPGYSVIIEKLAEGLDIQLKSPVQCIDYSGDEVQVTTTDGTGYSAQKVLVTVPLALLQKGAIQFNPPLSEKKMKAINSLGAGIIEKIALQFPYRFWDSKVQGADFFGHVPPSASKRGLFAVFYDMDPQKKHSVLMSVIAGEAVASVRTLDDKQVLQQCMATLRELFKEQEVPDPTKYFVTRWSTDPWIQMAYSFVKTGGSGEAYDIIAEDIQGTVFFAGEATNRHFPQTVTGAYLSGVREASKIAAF
UniProt Q8WVZ9: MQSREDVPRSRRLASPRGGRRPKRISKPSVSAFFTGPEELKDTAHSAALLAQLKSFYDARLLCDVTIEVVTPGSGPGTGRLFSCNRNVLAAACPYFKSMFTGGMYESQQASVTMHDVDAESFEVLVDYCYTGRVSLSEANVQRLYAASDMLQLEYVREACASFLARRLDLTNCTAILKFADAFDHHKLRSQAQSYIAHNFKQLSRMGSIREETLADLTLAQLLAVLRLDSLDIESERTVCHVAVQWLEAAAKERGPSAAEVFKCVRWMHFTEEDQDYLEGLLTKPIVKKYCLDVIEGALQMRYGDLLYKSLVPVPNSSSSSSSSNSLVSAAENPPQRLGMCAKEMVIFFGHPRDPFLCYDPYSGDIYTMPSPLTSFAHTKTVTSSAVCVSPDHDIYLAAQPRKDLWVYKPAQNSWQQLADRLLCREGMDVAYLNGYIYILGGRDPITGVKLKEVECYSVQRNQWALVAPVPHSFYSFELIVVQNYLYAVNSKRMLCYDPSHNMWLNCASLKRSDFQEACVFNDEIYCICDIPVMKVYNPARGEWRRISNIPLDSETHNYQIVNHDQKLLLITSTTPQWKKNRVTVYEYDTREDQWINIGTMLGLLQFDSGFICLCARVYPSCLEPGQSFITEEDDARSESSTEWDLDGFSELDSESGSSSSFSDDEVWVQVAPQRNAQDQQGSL
UniProt Q9H079: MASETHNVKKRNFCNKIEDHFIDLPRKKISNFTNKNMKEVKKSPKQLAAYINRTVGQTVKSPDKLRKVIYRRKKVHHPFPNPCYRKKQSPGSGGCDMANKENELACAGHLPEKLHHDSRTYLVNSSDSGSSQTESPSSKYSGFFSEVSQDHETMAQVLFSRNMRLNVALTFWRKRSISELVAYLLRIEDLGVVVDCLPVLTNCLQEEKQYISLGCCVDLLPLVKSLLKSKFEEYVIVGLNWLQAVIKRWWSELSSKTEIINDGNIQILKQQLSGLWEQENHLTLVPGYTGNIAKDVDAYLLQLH

Columns and labels:
Assay in all cases: log2 fold change, soluble protein after heating vs DMSO (PISA); higher = thermal stabilisation; K562 cells, 10 uM, 30 min; active = over 0.2 and 3.5 SD of the protein, either way, in both replicates (recomputed)
[1] = compound: COC1=CC=C(C=C1)CN2C=CC3=C2C=C(C=C3)C(=O)NO
Summary of the method: (§1)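 K562 cells at 2×10^6 cells/mL were exposed to 10 μM compound for 30 min, then aliquots were heated for 3 min across 48°C-58°C, pooled, and extracted in PBS containing 0.5% NP-40 at 4°C. The supernatant after 21,000xg for 90 min was taken as soluble protein and measured by TMTpro 16plex LC-MS/MS with channel sums equalised. Thermal stability is reported relative to control samples, with values from duplicates. Fold changes are given on a log2 scale.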

filanesib = compound: CON(C)C(=O)N1N=C(c2cc(F)ccc2F)S[C@@]1(CCCN)c1ccccc1 [filanesib]
Summary of the method: as §1

zotarolimus = compound: CO[C@H]1C[C@@H]2CC[C@@H](C)[C@@](O)(O2)C(=O)C(=O)N2CCCC[C@H]2C(=O)O[C@H]([C@H](C)C[C@@H]2CC[C@H](n3cnnn3)[C@H](OC)C2)CC(=O)[C@H](C)/C=C(\C)[C@@H](O)[C@@H](OC)C(=O)[C@H](C)C[C@H](C)/C=C/C=C/C=C/1C [zotarolimus]
Summary of the method: as §1

idasanutlin = compound: COc1cc(C(=O)O)ccc1NC(=O)[C@@H]1N[C@@H](CC(C)(C)C)[C@](C#N)(c2ccc(Cl)cc2F)[C@H]1c1cccc(Cl)c1F [idasanutlin]
Summary of the method: as §1

alisertib = compound: COc1cc(Nc2ncc3c(n2)-c2ccc(Cl)cc2C(c2c(F)cccc2OC)=NC3)ccc1C(=O)O [alisertib]
Summary of the method: as §1

[2] = compound: COc1cc2nc(-c3cc(F)ccc3O)nc(N[C@@H]3CNC[C@H]3C(C)(C)O)c2cc1OC
Summary of the method: as §1

[3] = compound: COc1cccc2cc(-c3nc([C@H]4CC[C@H](C(=O)O)CC4)n4ncnc(N)c34)[nH]c12
Summary of the method: as §1

lapatinib = compound: CS(=O)(=O)CCNCc1ccc(-c2ccc3ncnc(Nc4ccc(OCc5cccc(F)c5)c(Cl)c4)c3c2)o1 [lapatinib]
Summary of the method: as §1

pictilisib = compound: CS(=O)(=O)N1CCN(Cc2cc3nc(-c4cccc5[nH]ncc45)nc(N4CCOCC4)c3s2)CC1 [pictilisib]
Summary of the method: as §1

[4] = compound: CS(=O)(=O)c1ccc(-c2cnc(N)c(C(=O)Nc3ccccc3)n2)cc1
Summary of the method: as §1

crizotinib = compound: C[C@@H](Oc1cc(-c2cnn(C3CCNCC3)c2)cnc1N)c1c(Cl)ccc(F)c1Cl [crizotinib]
Summary of the method: as §1

[5] = compound: C[C@@H]1COCCN1C2=NC(=NC(=C2)C3(CC3)S(=O)(=O)C)C4=C5C=CNC5=CC=C4
Summary of the method: as §1

[6] = compound: C[C@H](C1=CC=C(C=C1)C(=O)NC2=C3C=CNC3=NC=C2)N
Summary of the method: as §1

gandotinib = compound: Cc1cc(Nc2cc(CN3CCOCC3)c3nc(C)c(Cc4ccc(Cl)cc4F)n3n2)n[nH]1 [gandotinib]
Summary of the method: as §1

[7] = compound: Cc1cc(SCc2sc(-c3ccc(C(F)(F)F)cc3)nc2C)ccc1OCC(=O)O
Summary of the method: as §1

doramapimod = compound: Cc1ccc(-n2nc(C(C)(C)C)cc2NC(=O)Nc2ccc(OCCN3CCOCC3)c3ccccc23)cc1 [doramapimod]
Summary of the method: as §1

ispinesib = compound: Cc1ccc(C(=O)N(CCCN)[C@@H](c2nc3cc(Cl)ccc3c(=O)n2Cc2ccccc2)C(C)C)cc1 [ispinesib]
Summary of the method: as §1

duvelisib = compound: C[C@H](Nc1ncnc2nc[nH]c12)c1cc2cccc(Cl)c2c(=O)n1-c1ccccc1 [duvelisib]
Summary of the method: as §1

tozasertib = compound: Cc1cc(Nc2cc(N3CCN(C)CC3)nc(Sc3ccc(NC(=O)C4CC4)cc3)n2)n[nH]1 [tozasertib]
Summary of the method: as §1

gefitinib = compound: COc1cc2ncnc(Nc3ccc(F)c(Cl)c3)c2cc1OCCCN1CCOCC1 [gefitinib]
Summary of the method: as §1

Measured: log2 fold change

KIF3B (UniProt O15066)
inactive: [1] -0.071 | filanesib 0.04 | zotarolimus 0.027 | idasanutlin -0.252 | alisertib -0.071 | [2] 0.164 | [3] 0.04 | lapatinib 0.035 | pictilisib -0.161 | [4] -0.004 | crizotinib -0.018 | [5] 0.054 | [6] 0.03 | gandotinib -0.199 | [7] -0.023 | doramapimod 0.076 | ispinesib 0.04

KIF15 (UniProt Q9NS87)
inactive: [1] 0.058 | filanesib 0.263 | zotarolimus 0.118 | idasanutlin 0.308 | alisertib 0.805 | [3] -0.087 | pictilisib -0.162 | [4] 0.339 | crizotinib -0.015 | [5] -0.338 | [6] 0.359 | duvelisib -0.167 | gandotinib 0.074 | tozasertib 0.173 | [7] 0.105 | doramapimod 0.054 | ispinesib -0.113

KNG1 (UniProt P01042)
inactive: [1] -0.152 | filanesib 0.062 | zotarolimus -0.142 | idasanutlin 0.129 | alisertib -0.128 | [2] -0.09 | gefitinib 0.138 | [3] 0.326 | lapatinib -0.024 | pictilisib 0.013 | [4] -0.107 | crizotinib 0.028 | [6] 0.031 | duvelisib -0.123 | gandotinib 0.066 | tozasertib -0.061 | [7] -0.2 | doramapimod 0.086 | ispinesib -0.008

KDM2A (UniProt Q9Y2K7)
inactive: [1] -0.226 | filanesib -0.093 | zotarolimus -0.065 | alisertib -0.13 | [2] 0.025 | gefitinib 0.05 | [3] 0.098 | lapatinib -0.072 | pictilisib 0.05 | [4] 0.102 | crizotinib -0.103 | [5] 0.171 | [6] -0.068 | duvelisib -0.032 | gandotinib -0.149 | tozasertib -0.012 | [7] 0.025 | doramapimod 0.003 | ispinesib 0.012

KIAA1324L (UniProt A8MWY0)
inactive: [1] -0.03 | filanesib 0.091 | zotarolimus -0.09 | idasanutlin 0.07 | alisertib -0.013 | [2] 0.028 | gefitinib 0.109 | [3] 0.049 | lapatinib -0.026 | pictilisib 0.005 | [4] 0.081 | crizotinib -0.125 | [5] 0.06 | [6] 0.062 | gandotinib 0.076 | [7] -0.057 | doramapimod 0.051 | ispinesib -0.124

JAG2 (UniProt Q9Y219)
inactive: [1] -0.017 | filanesib 0.005 | zotarolimus 0.017 | idasanutlin 0.01 | [2] 0.11 | gefitinib 0.116 | lapatinib 0.022 | [4] -0.009 | crizotinib 0.02 | [5] -0.145 | [6] -0.104 | duvelisib 0.009 | tozasertib -0.004 | [7] 0.022 | doramapimod 0.037 | ispinesib -0.041

KCNN4 (UniProt O15554)
inactive: [1] -0.153 | filanesib -0.176 | zotarolimus 0.128 | idasanutlin -0.036 | alisertib 0.071 | [2] -0.189 | gefitinib -0.125 | [3] 0.121 | lapatinib 0.129 | [4] -0.05 | crizotinib -0.105 | [6] 0.045 | duvelisib 0.026 | tozasertib -0.051 | [7] -0.029 | doramapimod 0.029 | ispinesib -0.109

KIAA0930 isoform 2 (UniProt Q6ICG6)
inactive: [1] -0.014 | filanesib 0.064 | zotarolimus -0.242 | alisertib 0.109 | [2] 0.01 | gefitinib -0.002 | [3] 0.019 | lapatinib 0.082 | [4] -0.126 | crizotinib 0.079 | [5] 0.026 | [6] 0.162 | duvelisib -0.121 | [7] -0.091 | doramapimod -0.024

KIF1C (UniProt O43896)
inactive: [1] -0.287 | filanesib 0.481 | zotarolimus 0.043 | [4] -0.105 | crizotinib -0.321 | [6] -0.083 | doramapimod 0.296

KLHL7 isoform 3 (UniProt Q8IXQ5)
inactive: [1] 0.007 | filanesib 0.074 | zotarolimus -0.03 | idasanutlin 0.065 | alisertib -0.042 | [2] 0.076 | gefitinib 0.063 | [3] -0.191 | lapatinib 0.071 | [4] -0.028 | crizotinib 0.081 | [5] 0.017 | [6] 0.035 | duvelisib 0.08 | [7] 0.066 | doramapimod -0.015

2 successive records already listed:
JAG2 (UniProt Q9Y219)
inactive: [1] -0.017 | filanesib 0.005 | zotarolimus 0.017 | idasanutlin 0.01 | [2] 0.11 | gefitinib 0.116 | lapatinib 0.022 | [4] -0.009 | crizotinib 0.02 | [5] -0.145 | [6] -0.104 | duvelisib 0.009 | tozasertib -0.004 | [7] 0.022 | doramapimod 0.037 | ispinesib -0.041

KCNN4 (UniProt O15554)
inactive: [1] -0.153 | filanesib -0.176 | zotarolimus 0.128 | idasanutlin -0.036 | alisertib 0.071 | [2] -0.189 | gefitinib -0.125 | [3] 0.121 | lapatinib 0.129 | [4] -0.05 | crizotinib -0.105 | [6] 0.045 | duvelisib 0.026 | tozasertib -0.051 | [7] -0.029 | doramapimod 0.029 | ispinesib -0.109

(next part)

KIF14 (UniProt Q15058)
inactive: [1] -0.048 | filanesib 0.076 | zotarolimus 0.17 | idasanutlin 0.219 | alisertib -0.022 | [2] -0.108 | [3] -0.285 | lapatinib -0.214 | [4] 0.018 | crizotinib -0.091 | [5] -0.042 | [6] 0.685 | duvelisib -0.065 | [7] -0.087 | doramapimod 0.001

KRTCAP2 isoform 2 (UniProt Q8N6L1)
inactive: [1] -0.039 | filanesib -0.065 | zotarolimus 0 | idasanutlin -0.169 | alisertib -0.033 | gefitinib -0.007 | [3] 0.043 | pictilisib 0.112 | [4] -0.013 | crizotinib 0.032 | [5] -0.008 | [6] -0.287 | duvelisib -0.137 | gandotinib -0.039 | tozasertib -0.135 | [7] -0.037 | doramapimod 0.017 | ispinesib -0.229

KIF13B (UniProt Q9NQT8)
inactive: [1] -0.09 | filanesib 0.009 | zotarolimus 0.017 | idasanutlin -0.077 | alisertib -0.156 | [2] -0.049 | [3] -0.139 | lapatinib 0.022 | pictilisib 0.072 | [4] 0.04 | crizotinib -0.049 | [5] -0.012 | [6] -0.069 | duvelisib 0.133 | gandotinib 0.034 | tozasertib -0.086 | [7] 0.037 | doramapimod 0.059

KDM1B (UniProt Q8NB78)
inactive: [1] -0.121 | filanesib -0.036 | alisertib 0.016 | gefitinib 0 | [3] 0.166 | [4] -0.004 | crizotinib 0.069 | duvelisib 0.151 | tozasertib 0.084 | [7] -0.133 | doramapimod 0.039

KMT2A isoform 3 (UniProt Q03164)
inactive: filanesib 0.187 | zotarolimus 0.055 | pictilisib -0.146 | [4] -0.04 | [6] -0.119 | duvelisib -0.068 | gandotinib -0.483 | [7] 0.091 | ispinesib -0.016

KBTBD7 (UniProt Q8WVZ9)
inactive: filanesib 0.143 | gefitinib 0.129 | pictilisib 0.114 | [4] 0.365 | duvelisib 0.032 | gandotinib 0.031 | [7] 0.211

KIDINS220 isoform 2 (UniProt Q9ULH0)
inactive: [1] -0.155 | filanesib 0.192 | gefitinib 0.162 | [4] 0.204 | crizotinib 0.138 | [5] -0.111 | duvelisib 0.183 | tozasertib -0.208 | [7] -0.148 | doramapimod 0.023

KNOP1 (UniProt Q1ED39)
inactive: [1] 0.022 | zotarolimus -0.35 | idasanutlin 0.148 | alisertib 0.021 | [2] 0.309 | gefitinib -0.004 | [3] -0.085 | lapatinib -0.056 | pictilisib -0.369 | crizotinib -0.155 | [6] 0.327 | duvelisib -0.179 | gandotinib 0.002 | tozasertib 0.011 | [7] -0.108 | doramapimod 0.201 | ispinesib -0.063

KATNBL1 (UniProt Q9H079)
inactive: filanesib 0.01 | zotarolimus 0.119 | alisertib -0.088 | [2] -0.005 | [3] 0.061 | lapatinib 0.12 | pictilisib 0 | [4] 0.052 | [6] 0.128 | duvelisib 0.011 | gandotinib -0.046 | tozasertib -0.008 | [7] -0.087 | ispinesib 0.048

KIAA1755 (UniProt Q5JYT7)
inactive: [1] -0.009 | zotarolimus 0.047 | [2] 0 | lapatinib -0.01 | crizotinib 0.067 | [5] -0.129 | [6] 0.241 | duvelisib 0.043 | tozasertib -0.047 | [7] -0.069 | doramapimod -0.057 | ispinesib -0.033

KIAA1109 (UniProt Q2LD37)
inactive: [1] 0.174 | filanesib -0.353 | pictilisib 0.022 | [4] 0.163 | crizotinib -0.074 | gandotinib -0.003 | doramapimod 0.075

KLF1 (UniProt Q13351)
inactive: [1] 0.008 | filanesib 0.072 | alisertib 0.117 | [2] 0.02 | gefitinib -0.043 | [3] -0.33 | lapatinib -0.001 | pictilisib -0.058 | [4] -0.203 | crizotinib -0.003 | duvelisib 0.072 | gandotinib 0.069 | [7] -0.192 | doramapimod 0.093 | ispinesib -0.021
